Assay results as given in PubChem BioAssay AID504467 (National Center for Advancing Translational Sciences (NCATS), 2011).
The whole screen tested about 330,000 compounds, of which about 7,700 (2.3%) were called active. The inconclusive results got no clear call from the source; some entries with a clear call stand among them for comparison. The call rests on the fitted dose curve; in most records, active means well fitted inhibition curve with a large enough effect; inconclusive means small, poorly fitted or top-dose-only effect, or effect the other way; inactive means flat fitted curve, though single readings scatter. Where the call is inconclusive, the potency comes from a doubtful curve fit.
On the % scale 0 is the no-effect control and ±100 the full control effect; potency means the concentration at half of the fitted maximal effect.

Test: qHTS screen for small molecules that inhibit ELG1-dependent DNA repair in human embryonic kidney (HEK293T) cells expressing luciferase-tagged ELG1; further: nearly all actives have a fitted effect of over 55% in size
Settings: HEK293T ELG1-luciferase reporter, luminescence, 16 h, DNA damage induced by 5-fluorouridine; activity change, negative = inhibition: at 46.1 µM (top of the series)
In short: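 5-Fluorouridine DNA damage + compound/DMSO, 2,000 cells/well, 16 h, 37 °C/5% CO2. ONE-Glo, 30 min RT, luminescence. Readout = decrease in reporter signal.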
With `CCC(C)(C)NC(=O)C(c1ccc(C)cc1)N(Cc1ccco1)C(=O)CCC(=O)Nc1nccs1` (stereo not given) the “activity change, negative = inhibition” value was inactive: 14.7%. For `COc1cc(/C=C2/C(=N)N3N=C(C(C)C)SC3=NC2=O)ccc1OS(=O)(=O)c1ccccc1`, the Potency was inconclusive: 20.6 µM [activator, partial curve, poor fit]. In the case of `CCN1C(=O)[C@@H]2C(C(=O)c3cnccn3)=NN[C@@H]2C1=O`, the Potency is reported as inconclusive: 32.6 µM [activator, partial curve, poor fit]. With `Cc1ccc(S(=O)(=O)CCSc2cccc(C(=O)Nc3ccccc3C(=O)O)c2)cc1` the “activity change, negative = inhibition” value was inactive: 5.64%. For `Cc1ccc(C(=O)c2ccccc2C(=O)O)cc1C`, the “activity change, negative = inhibition” value was inactive: -1.22%. With `c1ccc(C2Oc3ccccc3C3CC(c4cccs4)=NN32)cc1` (stereo not given) the Potency was inconclusive: 20.6 µM [activator, partial curve]. With `CCOc1ccc(N2CC(C(=O)Nc3cc(S(=O)(=O)N4CCCCC4)ccc3C)CC2=O)cc1` (stereo not given) the “activity change, negative = inhibition” value was inactive: -20.8%. With `COc1ccc(C)cc1NC(=O)c1ccc(-c2ccc(C(C)=O)cc2)o1` the Potency was inconclusive: 29.1 µM [inhibitor, single point]. In the case of `Cc1cc(Br)c2c(c1)/C(=C/C(=O)c1cccs1)C(=O)N2`, the Potency is reported as inconclusive: 20.6 µM [activator, single point]. In the case of `COc1ccc(S(=O)(=O)Nc2ccc3oc(C)c(C(C)=O)c3c2)cc1`, the Potency is reported as active: 2.59 µM. With `CN(C)c1ccc(NC(=O)CSc2n[nH]c(-c3ccco3)n2)cc1` the Potency was inconclusive: 29.1 µM [inhibitor, single point]. With `O=C(Oc1ccc(/C=N/Nc2ccccc2)cc1)c1ccccc1` the Potency was inconclusive: 18.4 µM [activator, single point]. For `CC(C)[C@H](NC(=O)c1ccccc1Cl)C(=O)OCC(=O)N1CCCCC1`, the Potency was inconclusive: 20.6 µM [activator, single point]. In the case of `COc1cccc(/C=N/NC(=O)c2nc(-c3ccccc3)cc(-c3ccccc3)n2)c1`, the Potency is reported as active: 7.31 µM. For `COc1ccc2oc(C(=O)Nc3nc(C)cs3)c(C)c2c1`, the Potency was inconclusive: 5.62 µM [activator, partial curve]. In the case of `COc1ccccc1C(=O)OCC(=O)NC1CCCC1`, the Potency is reported as inconclusive: 25.9 µM [activator, partial curve, poor fit]. With `O=C(O)c1cccc(S(=O)(=O)N2CCN(Cc3ccc4c(c3)OCO4)CC2)c1` the “activity change, negative = inhibition” value was inactive: 0.999%. With `COc1ccc(CNC(=O)CC2C(=O)NCCN2CC(C)(C)C)c(OC)c1` (stereo not given) the Potency was inconclusive: 25.9 µM [activator, partial curve, poor fit]. With `CCOCCCNS(=O)(=O)c1cc2[nH]c3c(c2cc1C)C(=O)CC(C)(C)C3` the Potency was inconclusive: 16.4 µM [inhibitor, single point]. For `O=C(C/C=N\OCc1ccc([N+](=O)[O-])cc1)Nc1ccc(Cl)cc1`, the “activity change, negative = inhibition” value was inactive: 18.5%. With `CS(=O)(=O)N(CC(=O)NCCSC1CCCCC1)c1ccc2c(c1)OCO2` the “activity change, negative = inhibition” value was inactive: -1.94%. With `CN(C)CC/C=C1\c2cc(F)ccc2CSc2ccccc21` the “activity change, negative = inhibition” value was inactive: 1.77%. With `CCOc1ncccc1C(=O)N1CCN(c2cc(Cl)ccc2C)CC1` the Potency was inconclusive: 10.3 µM [inhibitor, partial curve, poor fit]. For `COc1ccc(/C=N/NC(C)(C)C)c(OC)c1`, the “activity change, negative = inhibition” value was inactive: 15.2%. In the case of `COC(=O)c1cc(OC)c(OC)cc1NC(=O)c1ccccc1`, the Potency is reported as inconclusive: 25.9 µM [inhibitor, single point]. In the case of `O=C(NCCOc1cccc(Cl)c1Cl)c1cc(-n2cnnc2)ccc1Cl`, the “activity change, negative = inhibition” value is reported as inactive: 1.15%. For `COc1ccc2c(c1)CCc1c(C(=O)Nc3c(C)nn(Cc4ccccc4)c3C)noc1-2`, the Potency was active: 13 µM. With `CCc1nnc(NC(=O)COc2ccc(N(C)S(=O)(=O)c3ccc(C)cc3)cc2)s1` the Potency was inconclusive: 16.4 µM [inhibitor, partial curve, poor fit]. In the case of `C=CCNC(=O)c1onc(CSc2ccc(F)c(F)c2)c1C(=O)O`, the Potency is reported as inconclusive: 36.6 µM [activator, single point]. With `O=C(CCCCCNc1nc(=S)[nH]c2ccccc12)NCCc1c[nH]c2ccccc12` the Potency was active: 18.4 µM. For `COC(=O)CSc1nn(-c2ccc(F)cc2)c(=S)s1`, the “activity change, negative = inhibition” value was inactive: 14.6%. For `COc1cccc(NC(=S)N/N=C2\CC(C)(C)Oc3ccc(O)cc32)c1`, the Potency was inconclusive: 29.1 µM [inhibitor, single point]. For `Cc1c(NC(=O)/C=C/c2ccc(S(=O)(=O)N3CCOCC3)cc2)c(=O)n(-c2ccccc2)n1C`, the “activity change, negative = inhibition” value was inactive: -13.9%. For `O=c1c2ccccc2nc2c3ccccc3cnn12`, the Potency was inconclusive: 18.3 µM [activator, partial curve]. For `C(=N\N1CCN(C2c3ccccc3-c3ccccc32)CC1)/c1ccncc1`, the “activity change, negative = inhibition” value was inactive: 28.7%. In the case of `COc1cc(Cl)ccc1OCc1cc(C(=O)NC(C)Cc2cnccn2)no1` (stereo not given), the Potency is reported as inconclusive: 13 µM [activator, partial curve]. For `COc1cc(/C=N/n2c(C)n[nH]c2=S)ccc1OCc1ccc(F)cc1`, the Potency was inconclusive: 20.6 µM [activator, partial curve]. In the case of `Cc1cc2c([nH]c3ccccc32)c2c1OC(C)(C)C=C2`, the Potency is reported as inconclusive: 18.3 µM [activator, partial curve]. With `C=CCn1c(SCc2nc3ccccc3[nH]2)nnc1-c1ccccn1` the “activity change, negative = inhibition” value was inactive: -21.7%. In the case of `CCN=c1scc(C)n1/N=C/c1cc(Br)c(O)c(OC)c1`, the Potency is reported as active: 5.8 µM. For `O=C(NCCc1cccs1)C1CC(c2cccc(F)c2)=NO1` (stereo not given), the Potency was inconclusive: 25.9 µM [activator, single point]. In the case of `CC(Oc1ccc2c(-c3ccccc3)cc(=O)oc2c1)C(=O)NCc1ccccn1` (stereo not given), the Potency is reported as inconclusive: 5.8 µM [inhibitor, partial curve, poor fit]. For `COc1ccccc1CNC(=O)CSc1ccc(C(=O)Nc2ccccc2OC)cc1[N+](=O)[O-]`, the Potency was inconclusive: 23.1 µM [inhibitor, single point]. With `COC(=O)C1=C(O)C(C(=O)OC)C(c2ccc(C)cc2)C(C#N)(C#N)C1c1ccc(C)cc1` (stereo not given) the Potency was inconclusive: 29.1 µM [inhibitor, single point]. In the case of `S=C(Nc1ccc(Nc2ccccc2)cc1)Nc1ccccn1`, the “activity change, negative = inhibition” value is reported as inactive: 11.9%. In the case of `CCCCCn1c(N2CCN(c3cccc(Cl)c3)CC2)nc2c1c(=O)[nH]c(=O)n2C`, the Potency is reported as active: 23.1 µM. With `CC(C)c1ccc(OCC(=O)Nc2ccncc2)cc1` the “activity change, negative = inhibition” value was inactive: 9.84%. With `COc1cccc(-c2ccc(C#N)c(SCC(=O)NCc3ccco3)n2)c1` the “activity change, negative = inhibition” value was inactive: 4.85%. For `O=S(=O)(Cc1noc(-c2ccccc2Cl)n1)c1ccccn1`, the Potency was inconclusive: 14.6 µM [activator, partial curve]. In the case of `Cc1ccc(NS(=O)(=O)c2ccc3c(c2)NC(=O)CO3)cc1C`, the “activity change, negative = inhibition” value is reported as inactive: -0.707%. For `O=C(NCCNC(=O)c1cccs1)c1ccco1`, the Potency was inconclusive: 14.6 µM [activator, partial curve, poor fit]. In the case of `CCc1noc(C)c1C(=O)Nc1nc2ccc(S(C)(=O)=O)cc2s1`, the Potency is reported as inconclusive: 8.2 µM [activator, partial curve]. With `O=c1ccc2cc3c4c(c2o1)CCCN4CCC3` the “activity change, negative = inhibition” value was inactive: 23.6%. In the case of `O=c1cnn([C@@H]2O[C@H](CO)[C@@H](O)[C@H]2O)c(=O)[nH]1`, the Potency is reported as inconclusive: 16.4 µM [activator, partial curve, poor fit]. In the case of `CN1CCN(c2ccc(S(=O)(=O)N3CCOCC3)cc2NC(=O)Cc2ccccc2F)CC1`, the “activity change, negative = inhibition” value is reported as inactive: 7.12%. With `CCn1ccnc1CN(C)C(=O)CCc1nnc(CCCc2ccccc2)o1` the “activity change, negative = inhibition” value was inactive: 15.8%. For `Cc1c(N=C2Nc3cccc4cccc2c34)c(=O)n(-c2ccccc2)n1C`, the Potency was inconclusive: 23.1 µM [inhibitor, partial curve]. With `O=C(NCCc1ccc(Cl)cc1)c1cc(S(=O)(=O)N2CCCCC2)c[nH]1` the Potency was inconclusive: 29.1 µM [inhibitor, partial curve, poor fit]. In the case of `Cc1cccc(C(=O)Nc2ccc(NC(=O)c3ccccc3)cc2)c1`, the “activity change, negative = inhibition” value is reported as inactive: -15.3%. With `CC1CCN(S(=O)(=O)c2cccc(C(=O)NNC(=O)c3ccco3)c2)CC1` the Potency was inconclusive: 29.1 µM [activator, single point]. In the case of `Cc1cc(C)n2nc(C(=O)N3CCN(Cc4ccc5c(c4)OCO5)CC3)nc2n1`, the “activity change, negative = inhibition” value is reported as inactive: -5.43%. For `O=C(CN1CCOCC1)NNc1nc(-c2ccccc2)c2cc(Br)ccc2n1`, the “activity change, negative = inhibition” value was inactive: -15.3%. In the case of `O=C(COC(=O)c1n[nH]c2ccccc12)Nc1ccccc1F`, the Potency is reported as inconclusive: 10.3 µM [activator, partial curve]. In the case of `CN1CCCN(C(=O)Cc2c(Cl)cccc2Cl)c2nc3ccccc3nc21`, the “activity change, negative = inhibition” value is reported as inactive: -22%. For `CCOc1ccc(-n2c(SC)nc3c(c2=O)SCC3)cc1`, the “activity change, negative = inhibition” value was inactive: 0%. In the case of `CCn1c2c(c(C)cc1=O)C(=O)CC(C)(C)C2`, the Potency is reported as inconclusive: 29.1 µM [inhibitor, single point]. With `COc1cc(C2CC(=O)Oc3c(C(CCN4CCN(c5ccccc5)CC4)c4ccc(N(C)C)cc4)c(OC)cc(OC)c32)cc(OC)c1OC` (stereo not given) the Potency was inconclusive: 11.6 µM [activator, partial curve]. For `CCC(C)NC(=O)Cn1c(-c2ccccc2)cc(C(C)=O)c1C` (stereo not given), the “activity change, negative = inhibition” value was inactive: -1.76%. In the case of `CCN(CC)S(=O)(=O)c1ccc(N=NC2=C(O)CC(C)(C)CC2=O)cc1`, the “activity change, negative = inhibition” value is reported as inactive: 12.6%. With `CCOc1ccccc1N1CCN(C(=O)c2ccccc2SCC(=O)N2CCCC2)CC1` the “activity change, negative = inhibition” value was inactive: 0.0984%. With `S=C(Nc1ccccc1Cl)N(Cc1cccnc1)Cc1ccco1` the “activity change, negative = inhibition” value was inactive: -20.9%. With `O=C(O)C1C2C=CC(CC2)C1C(=O)O` (stereo not given) the “activity change, negative = inhibition” value was inactive: 11.7%. For `Nc1cc(-c2ccc(Br)cc2)[nH]n1`, the Potency was active: 13 µM. For `Cc1ccc(NC(=O)C(=O)C2C(=O)Nc3ccccc32)cc1` (stereo not given), the Potency was inconclusive: 16.4 µM [activator, partial curve]. With `COc1ccc2[nH]c(C(=O)NCCc3ccccc3)cc2c1` the Potency was inconclusive: 23.1 µM [activator, single point].
